{"source": "paper PMC10709007", "about": "“GPR162 is a beta cell CART receptor” (iScience, 2023)", "binders": {"B1": {"name": "rat CARTp55-102 (peptide, UniProt P49192 82-129)", "peptide": "IPIYEKKYGQVPMCDAGEQCAVRKGARIGKLCDCPRGTSCNSFLLKCL"}}, "key": {"[1]": {"target": "T1, GIP receptor (rat (endogenous in INS-1 832/13)) (UniProt P43219)", "T1 sequence": "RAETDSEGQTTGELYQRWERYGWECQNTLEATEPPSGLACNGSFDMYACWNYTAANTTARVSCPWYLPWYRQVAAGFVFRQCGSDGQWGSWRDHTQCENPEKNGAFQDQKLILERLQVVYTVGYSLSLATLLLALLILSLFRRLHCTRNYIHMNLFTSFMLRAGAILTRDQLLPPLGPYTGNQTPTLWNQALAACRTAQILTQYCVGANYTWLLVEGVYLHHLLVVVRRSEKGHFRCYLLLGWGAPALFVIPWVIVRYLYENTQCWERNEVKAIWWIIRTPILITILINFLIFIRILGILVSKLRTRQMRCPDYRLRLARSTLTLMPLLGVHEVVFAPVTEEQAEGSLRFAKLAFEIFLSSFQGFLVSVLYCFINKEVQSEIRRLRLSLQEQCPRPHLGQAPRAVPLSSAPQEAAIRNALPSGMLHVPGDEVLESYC", "experiment": "proximity ligation; INS-1 832/13 cells incubated with 10^-7 M rat CARTp55-102 for 5 min at 37°C, fixed, permeabilised; DuoLink Goat/Rabbit with anti-CART and an anti-receptor antibody; control or Gpr162 siRNA (90% lower CART-GPR162 signal after KD); only the binder purified"}, "[2]": {"target": "T2, GPR160 (rat (endogenous in INS-1 832/13)) (UniProt Q66H29)", "T2 sequence": "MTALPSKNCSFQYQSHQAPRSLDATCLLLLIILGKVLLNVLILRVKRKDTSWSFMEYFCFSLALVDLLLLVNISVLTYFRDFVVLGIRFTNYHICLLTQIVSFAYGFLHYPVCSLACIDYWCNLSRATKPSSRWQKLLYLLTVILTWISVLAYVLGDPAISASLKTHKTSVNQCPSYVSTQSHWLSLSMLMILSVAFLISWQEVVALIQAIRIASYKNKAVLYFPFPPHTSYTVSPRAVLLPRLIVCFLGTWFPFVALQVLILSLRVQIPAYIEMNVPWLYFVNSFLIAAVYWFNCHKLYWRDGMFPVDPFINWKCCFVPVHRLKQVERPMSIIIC", "experiment": "proximity ligation; INS-1 832/13 cells incubated with 10^-7 M rat CARTp55-102 for 5 min at 37°C, fixed, permeabilised; DuoLink Goat/Rabbit with anti-CART and an anti-receptor antibody; control or Gpr162 siRNA (90% lower CART-GPR162 signal after KD); only the binder purified"}}, "note": "Results are given in words; binding and its absence hold for the method and conditions named. In cells and extracts the contact can be indirect."}
{"binder": "B1", "values": [{"measurement": "binding", "setting": "[1]", "result": "no binding (tested: 10^-7 M CARTp55-102)"}, {"measurement": "binding", "setting": "[2]", "result": "no binding (tested: 10^-7 M CARTp55-102)"}]}
